Test results as given in the supplement of paper PMC10849652.
Some of the results follow.

Protein sequences, listed by entry. Tags and fused reporters are not part of them. Lines headed by an entry give the natural chain unless they say otherwise; changes in a name come on top.
UniProt P43490: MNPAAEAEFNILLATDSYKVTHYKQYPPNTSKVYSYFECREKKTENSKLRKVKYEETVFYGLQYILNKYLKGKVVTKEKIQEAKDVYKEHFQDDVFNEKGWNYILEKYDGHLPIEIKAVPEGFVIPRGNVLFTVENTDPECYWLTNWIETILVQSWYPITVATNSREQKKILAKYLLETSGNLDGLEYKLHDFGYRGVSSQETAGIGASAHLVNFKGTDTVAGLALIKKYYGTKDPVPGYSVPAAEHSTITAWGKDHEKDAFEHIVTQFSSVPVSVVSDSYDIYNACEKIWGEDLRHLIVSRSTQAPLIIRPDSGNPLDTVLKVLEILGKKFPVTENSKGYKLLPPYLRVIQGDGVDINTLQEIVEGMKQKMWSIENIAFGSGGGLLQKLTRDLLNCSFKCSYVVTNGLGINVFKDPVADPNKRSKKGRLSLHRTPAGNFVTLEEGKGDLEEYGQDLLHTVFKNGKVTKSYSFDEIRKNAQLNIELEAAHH
UniProt P08590, whole entry, looked up: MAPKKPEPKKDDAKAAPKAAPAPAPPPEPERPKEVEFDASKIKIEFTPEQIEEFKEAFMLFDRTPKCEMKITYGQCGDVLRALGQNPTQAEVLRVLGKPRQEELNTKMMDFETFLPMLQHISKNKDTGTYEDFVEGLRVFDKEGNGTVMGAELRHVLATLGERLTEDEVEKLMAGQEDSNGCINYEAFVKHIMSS
UniProt P11055, whole entry, looked up: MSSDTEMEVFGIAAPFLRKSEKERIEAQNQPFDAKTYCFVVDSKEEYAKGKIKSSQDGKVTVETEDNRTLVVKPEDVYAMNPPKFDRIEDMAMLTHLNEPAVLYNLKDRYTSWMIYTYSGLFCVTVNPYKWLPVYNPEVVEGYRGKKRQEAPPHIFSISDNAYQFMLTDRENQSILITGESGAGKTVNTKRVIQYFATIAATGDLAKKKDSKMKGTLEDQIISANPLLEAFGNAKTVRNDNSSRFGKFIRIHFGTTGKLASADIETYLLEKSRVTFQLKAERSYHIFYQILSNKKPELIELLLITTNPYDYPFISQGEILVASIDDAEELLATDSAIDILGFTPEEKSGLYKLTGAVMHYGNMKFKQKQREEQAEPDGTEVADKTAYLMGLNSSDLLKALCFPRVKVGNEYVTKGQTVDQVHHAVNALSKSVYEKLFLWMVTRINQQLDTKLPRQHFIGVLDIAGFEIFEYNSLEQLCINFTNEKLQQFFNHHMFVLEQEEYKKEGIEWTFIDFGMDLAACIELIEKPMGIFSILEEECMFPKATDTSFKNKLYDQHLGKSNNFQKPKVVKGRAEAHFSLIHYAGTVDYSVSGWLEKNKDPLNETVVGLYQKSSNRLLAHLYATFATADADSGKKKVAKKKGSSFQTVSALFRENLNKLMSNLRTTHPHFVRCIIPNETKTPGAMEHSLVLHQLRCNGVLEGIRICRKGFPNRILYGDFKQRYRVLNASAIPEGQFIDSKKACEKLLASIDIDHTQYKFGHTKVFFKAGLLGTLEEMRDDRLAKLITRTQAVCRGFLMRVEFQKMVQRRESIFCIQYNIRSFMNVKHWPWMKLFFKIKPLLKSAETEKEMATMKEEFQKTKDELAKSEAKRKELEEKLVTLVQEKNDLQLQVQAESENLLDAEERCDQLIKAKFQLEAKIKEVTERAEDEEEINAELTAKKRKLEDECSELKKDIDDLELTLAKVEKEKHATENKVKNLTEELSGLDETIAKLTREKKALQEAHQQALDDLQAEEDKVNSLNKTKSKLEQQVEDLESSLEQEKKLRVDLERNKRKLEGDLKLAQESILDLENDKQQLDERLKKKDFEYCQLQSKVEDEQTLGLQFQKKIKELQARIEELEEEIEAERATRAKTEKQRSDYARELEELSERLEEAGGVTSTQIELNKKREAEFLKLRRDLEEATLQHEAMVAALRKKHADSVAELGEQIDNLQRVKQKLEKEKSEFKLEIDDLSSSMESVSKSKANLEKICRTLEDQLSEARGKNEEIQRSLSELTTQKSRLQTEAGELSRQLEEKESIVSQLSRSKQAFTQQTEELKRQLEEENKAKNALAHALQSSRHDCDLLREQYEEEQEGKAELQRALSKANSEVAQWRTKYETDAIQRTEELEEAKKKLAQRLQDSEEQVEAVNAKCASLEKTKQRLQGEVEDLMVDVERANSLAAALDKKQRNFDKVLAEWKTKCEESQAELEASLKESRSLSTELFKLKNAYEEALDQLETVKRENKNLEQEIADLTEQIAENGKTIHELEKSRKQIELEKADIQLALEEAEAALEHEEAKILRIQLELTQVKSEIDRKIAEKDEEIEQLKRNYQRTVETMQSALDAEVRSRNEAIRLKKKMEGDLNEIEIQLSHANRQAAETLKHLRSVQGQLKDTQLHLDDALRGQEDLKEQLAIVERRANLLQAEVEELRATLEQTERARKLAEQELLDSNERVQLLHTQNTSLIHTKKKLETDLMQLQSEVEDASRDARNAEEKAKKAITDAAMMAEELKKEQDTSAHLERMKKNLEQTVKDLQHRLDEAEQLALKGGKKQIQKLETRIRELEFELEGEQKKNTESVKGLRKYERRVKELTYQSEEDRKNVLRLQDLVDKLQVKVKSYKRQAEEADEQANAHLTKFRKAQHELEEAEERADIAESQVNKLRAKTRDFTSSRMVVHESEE
UniProt Q09161: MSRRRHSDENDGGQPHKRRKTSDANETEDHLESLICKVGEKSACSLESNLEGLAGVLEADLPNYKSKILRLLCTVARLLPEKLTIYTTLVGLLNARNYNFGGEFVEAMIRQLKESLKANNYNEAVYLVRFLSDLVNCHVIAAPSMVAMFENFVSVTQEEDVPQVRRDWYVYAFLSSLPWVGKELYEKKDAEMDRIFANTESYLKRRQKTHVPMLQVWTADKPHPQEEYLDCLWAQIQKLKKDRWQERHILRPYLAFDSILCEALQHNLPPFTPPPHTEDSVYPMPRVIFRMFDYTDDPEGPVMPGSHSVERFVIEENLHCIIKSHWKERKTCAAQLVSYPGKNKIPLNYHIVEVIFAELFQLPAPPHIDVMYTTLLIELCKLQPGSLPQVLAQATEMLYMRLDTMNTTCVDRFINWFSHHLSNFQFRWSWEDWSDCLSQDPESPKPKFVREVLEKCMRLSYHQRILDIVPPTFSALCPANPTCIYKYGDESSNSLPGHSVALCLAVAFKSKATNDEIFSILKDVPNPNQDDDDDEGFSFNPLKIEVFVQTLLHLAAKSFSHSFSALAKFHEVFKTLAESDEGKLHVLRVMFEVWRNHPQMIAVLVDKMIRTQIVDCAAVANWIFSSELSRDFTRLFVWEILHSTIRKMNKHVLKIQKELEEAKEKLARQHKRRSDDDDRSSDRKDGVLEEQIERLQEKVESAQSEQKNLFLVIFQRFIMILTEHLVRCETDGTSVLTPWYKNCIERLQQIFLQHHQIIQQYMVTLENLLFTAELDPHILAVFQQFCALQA
UniProt Q15788: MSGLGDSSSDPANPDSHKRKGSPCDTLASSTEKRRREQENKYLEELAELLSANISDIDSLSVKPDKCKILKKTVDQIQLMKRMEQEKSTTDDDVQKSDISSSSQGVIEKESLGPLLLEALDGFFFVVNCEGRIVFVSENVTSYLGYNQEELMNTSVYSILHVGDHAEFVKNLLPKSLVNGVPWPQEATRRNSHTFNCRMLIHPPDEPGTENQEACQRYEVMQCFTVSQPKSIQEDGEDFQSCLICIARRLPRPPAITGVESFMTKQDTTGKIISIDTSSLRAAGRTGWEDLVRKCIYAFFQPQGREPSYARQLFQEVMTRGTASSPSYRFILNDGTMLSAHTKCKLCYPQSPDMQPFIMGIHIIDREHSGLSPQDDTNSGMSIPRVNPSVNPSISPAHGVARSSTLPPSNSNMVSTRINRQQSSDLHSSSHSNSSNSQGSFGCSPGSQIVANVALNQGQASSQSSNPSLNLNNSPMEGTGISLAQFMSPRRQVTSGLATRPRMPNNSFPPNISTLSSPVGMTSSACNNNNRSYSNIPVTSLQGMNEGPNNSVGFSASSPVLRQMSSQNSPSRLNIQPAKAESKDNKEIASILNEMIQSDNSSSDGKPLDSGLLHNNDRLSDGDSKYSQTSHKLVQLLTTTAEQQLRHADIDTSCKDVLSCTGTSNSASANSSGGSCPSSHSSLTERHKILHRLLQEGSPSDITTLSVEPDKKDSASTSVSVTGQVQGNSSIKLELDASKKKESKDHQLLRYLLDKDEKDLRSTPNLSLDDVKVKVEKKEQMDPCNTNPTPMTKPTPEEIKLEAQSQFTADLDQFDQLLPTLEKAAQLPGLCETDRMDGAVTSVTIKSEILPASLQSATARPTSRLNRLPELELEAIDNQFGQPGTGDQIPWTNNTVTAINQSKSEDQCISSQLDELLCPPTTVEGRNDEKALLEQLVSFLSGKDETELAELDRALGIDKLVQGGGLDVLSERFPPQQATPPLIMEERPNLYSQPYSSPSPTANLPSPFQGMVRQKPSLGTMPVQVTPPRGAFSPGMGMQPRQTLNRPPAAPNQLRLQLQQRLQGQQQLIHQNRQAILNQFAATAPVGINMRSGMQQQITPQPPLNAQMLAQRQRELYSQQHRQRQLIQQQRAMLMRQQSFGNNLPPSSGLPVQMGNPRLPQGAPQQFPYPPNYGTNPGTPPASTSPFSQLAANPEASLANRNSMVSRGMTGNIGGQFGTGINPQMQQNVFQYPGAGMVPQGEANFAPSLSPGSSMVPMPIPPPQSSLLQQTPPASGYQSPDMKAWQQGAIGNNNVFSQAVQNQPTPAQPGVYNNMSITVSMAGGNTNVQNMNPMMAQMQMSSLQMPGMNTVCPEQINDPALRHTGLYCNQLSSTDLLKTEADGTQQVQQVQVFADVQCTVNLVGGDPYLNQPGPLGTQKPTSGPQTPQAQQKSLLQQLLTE
UniProt P01106: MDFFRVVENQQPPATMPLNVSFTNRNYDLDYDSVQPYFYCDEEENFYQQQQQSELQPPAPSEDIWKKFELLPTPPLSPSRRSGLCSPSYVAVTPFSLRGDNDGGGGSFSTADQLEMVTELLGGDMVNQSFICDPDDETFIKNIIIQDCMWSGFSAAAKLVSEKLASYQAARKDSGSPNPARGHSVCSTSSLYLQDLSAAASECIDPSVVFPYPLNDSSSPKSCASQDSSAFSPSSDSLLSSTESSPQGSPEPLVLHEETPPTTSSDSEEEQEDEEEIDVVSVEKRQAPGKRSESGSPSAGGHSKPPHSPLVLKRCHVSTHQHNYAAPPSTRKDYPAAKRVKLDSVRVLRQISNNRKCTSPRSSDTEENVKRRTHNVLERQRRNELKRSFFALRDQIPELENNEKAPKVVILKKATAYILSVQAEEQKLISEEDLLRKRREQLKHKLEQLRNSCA
UniProt Q9UL68: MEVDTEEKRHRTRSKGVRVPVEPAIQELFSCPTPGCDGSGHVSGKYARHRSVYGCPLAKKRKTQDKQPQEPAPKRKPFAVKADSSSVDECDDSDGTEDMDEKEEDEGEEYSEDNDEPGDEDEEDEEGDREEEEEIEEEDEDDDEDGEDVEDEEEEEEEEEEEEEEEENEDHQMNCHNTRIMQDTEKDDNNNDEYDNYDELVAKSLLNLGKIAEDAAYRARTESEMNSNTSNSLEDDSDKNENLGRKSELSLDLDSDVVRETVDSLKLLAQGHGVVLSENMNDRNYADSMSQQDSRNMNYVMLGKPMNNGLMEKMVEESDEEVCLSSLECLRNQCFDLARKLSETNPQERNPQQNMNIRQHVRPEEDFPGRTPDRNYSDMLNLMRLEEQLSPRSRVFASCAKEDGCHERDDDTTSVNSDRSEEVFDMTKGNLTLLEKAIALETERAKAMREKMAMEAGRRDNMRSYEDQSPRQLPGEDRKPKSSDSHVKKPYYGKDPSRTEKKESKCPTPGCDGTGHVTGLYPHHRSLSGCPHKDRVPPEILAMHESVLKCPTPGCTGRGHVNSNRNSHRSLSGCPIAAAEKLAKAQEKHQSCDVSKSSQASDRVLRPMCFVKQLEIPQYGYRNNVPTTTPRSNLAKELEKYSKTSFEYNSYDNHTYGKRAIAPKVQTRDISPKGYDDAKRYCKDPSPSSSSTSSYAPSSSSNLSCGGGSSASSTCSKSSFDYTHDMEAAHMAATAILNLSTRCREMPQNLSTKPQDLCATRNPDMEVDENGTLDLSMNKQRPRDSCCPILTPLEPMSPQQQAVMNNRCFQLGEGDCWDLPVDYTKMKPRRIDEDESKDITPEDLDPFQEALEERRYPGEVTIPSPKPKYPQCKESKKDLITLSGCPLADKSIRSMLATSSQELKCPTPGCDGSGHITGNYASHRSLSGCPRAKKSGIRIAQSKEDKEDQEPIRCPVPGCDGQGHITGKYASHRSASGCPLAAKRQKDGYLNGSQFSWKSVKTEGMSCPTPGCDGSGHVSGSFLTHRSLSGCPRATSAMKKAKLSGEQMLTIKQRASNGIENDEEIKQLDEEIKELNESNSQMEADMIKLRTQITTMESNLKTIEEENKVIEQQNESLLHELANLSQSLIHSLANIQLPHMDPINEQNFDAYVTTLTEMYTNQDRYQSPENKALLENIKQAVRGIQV

Columns and labels:
Experiment in all cases: log2 fold change, soluble protein after heating vs DMSO (PISA); higher = thermal stabilisation; K562 lysate, 10 uM; active = over 0.2 and 3.5 SD of the protein, either way, in both replicates (recomputed)
erlotinib = compound: C#Cc1cccc(Nc2ncnc3cc(OCCOC)c(OCCOC)cc23)c1 [erlotinib]
In short: (§1)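 Thermal stability, expressed as log-two fold change relative to solvent controls, is given from duplicates. Crude K562 extract in PBS pH 7.4 with 1 mM MgCl2, at 1 mg/mL protein, was treated with 10 μM compound for 30 min and heated in aliquots for 3 min across 48°C-58°C. After pooling, adjustment to 0.5% NP-40 at 4°C and centrifugation at 21,000xg for 90 min, supernatant protein was measured by TMTpro 16plex LC-MS/MS with channel sums equalised.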

[1] = compound: C/C(=N\NC(=O)C1=CC(=CC=C1)S(=O)(=O)N2CCOCC2)/C3=C(C=CC(=C3)Cl)O
In short: as §1

[2] = compound: C1=CC(=CC=C1C2=NC3=C(N2)C=C(C=C3)C(=O)N)OC4=CC=C(C=C4)Cl
In short: as §1

[3] = compound: C1=CC2=C(C=CC(=C2)/C=C\3/C(=O)NC(=NCC4=CC=CS4)S3)N=C1
In short: as §1

[4] = compound: C1=CC2=NC=CN=C2C=C1/C=C/3\C(=O)NC(=O)S3
In short: as §1

[5] = compound: C1=CC=C(C=C1)C2=NC(=C(N2)C3=CC=NC=C3)C4=CC(=C(C=C4)Cl)O
In short: as §1

[6] = compound: C1=CC=C2C(=C1)C3=NNC4=CC=CC(=C43)C2=O
In short: as §1

[7] = compound: C1CCN(C1)C(=O)NC2=CC=CC(=C2)NC3=NC=C(C(=N3)NCCC4=CN=CN4)Br
In short: as §1

[8] = compound: C1CN(CCC1(CC2=CC=C(C=C2)Cl)N)C3=NC=NC4=C3C=CN4
In short: as §1

IRAK-1-4 Inhibitor I = compound: C1COCCN1CCN2C3=CC=CC=C3N=C2NC(=O)C4=CC(=CC=C4)[N+](=O)[O-] [IRAK-1-4 Inhibitor I]
In short: as §1

ibrutinib = compound: C=CC(=O)N1CCC[C@@H](n2nc(-c3ccc(Oc4ccccc4)cc3)c3c(N)ncnc32)C1 [ibrutinib]
In short: as §1

[9] = compound: CC(=O)c1cnc2ccc(-c3cc(Cl)c(O)c(Cl)c3)nc2c1N[C@H]1CC[C@H](CN(C)C)CC1
In short: as §1

ralimetinib = compound: CC(C)(C)Cn1c(N)nc2ccc(-c3[nH]c(C(C)(C)C)nc3-c3ccc(F)cc3)nc21 [ralimetinib]
In short: as §1

[10] = compound: CC(C)(O)CC(=O)NCCn1ccc2ncnc(Nc3ccc(Oc4cccc(C(F)(F)F)c4)c(Cl)c3)c21
In short: as §1

[11] = compound: CC(C)C1=C2N=C(C=C(N2N=C1)NCC3=CC=CC=C3)NCCCCCCN
In short: as §1

[12] = compound: CC1=C(C(CC(=O)N1)C2=CC=C(C=C2)C(F)(F)F)C(=O)NC3=C(C=C4C(=C3)C=NN4)F
In short: as §1

[13] = compound: CC1=C(C2=C(C=C1)C(=O)C3=CC=CC=C3N2CCCN)C
In short: as §1

[14] = compound: CC1=C(C=C(C=C1)NC(=O)C2=CC(=CC=C2)C(C)(C)C#N)NC3=CC4=C(C=C3)N=CN(C4=O)C
In short: as §1

[15] = compound: CC1=C(C=C(C=C1)NC(=O)C2=CC(=CC=C2)N(C)C)NC(=O)C3=CC=C(C=C3)O
In short: as §1

[16] = compound: CC1=CC=C(C=C1)SC2=C3C=C(SC3=CN=C2)C(=O)N
In short: as §1

Measured: log2 fold change

NAMPT (UniProt P43490)
inactive: erlotinib -0.035 | [1] 0.08 | [2] -0.027 | [3] -0.001 | [4] -0.004 | [5] 0.097 | [6] 0.097 | [7] 0.043 | [8] -0.036 | IRAK-1-4 Inhibitor I -0.03 | ibrutinib 0.04 | [9] 0.008 | ralimetinib -0.014 | [10] 0.006 | [11] -0.019 | [12] -0.023 | [13] 0.055 | [14] 0.012 | [15] -0.032 | [16] -0.001

MVD (UniProt P53602)
inactive: erlotinib 0.042 | [1] -0.036 | [2] 0.025 | [3] -0.021 | [4] -0.009 | [5] -0.008 | [6] -0.038 | [7] -0.008 | [8] 0.061 | ibrutinib 0.02 | [9] -0.013 | ralimetinib 0.005 | [10] -0.009 | [11] -0.005 | [12] -0.013 | [13] -0.02 | [14] 0.009 | [15] -0.007 | [16] -0.013

NCEH1 (UniProt Q6PIU2)
inactive: erlotinib -0.019 | [1] 0.039 | [2] 0.001 | [3] 0.048 | [4] -0.008 | [5] 0.008 | [6] -0.064 | [7] -0.002 | [8] 0.004 | IRAK-1-4 Inhibitor I 0.02 | ibrutinib 0.006 | [9] 0.021 | ralimetinib 0.058 | [10] -0.037 | [11] -0.076 | [12] 0.033 | [13] -0.049 | [14] -0.03 | [15] 0.001 | [16] -0.041

MYL3 (UniProt P08590)
inactive: erlotinib 0.019 | [1] 0.015 | [2] 0.05 | [3] 0.045 | [4] -0.042 | [5] -0.033 | [6] -0.006 | [7] 0.021 | [8] 0.017 | IRAK-1-4 Inhibitor I 0.051 | ibrutinib 0.121 | [9] -0.048 | ralimetinib 0.024 | [10] -0.031 | [11] 0.011 | [12] -0.026 | [14] 0.094 | [15] -0.009 | [16] -0.048

MYH3 (UniProt P11055)
inactive: erlotinib 0 | [1] 0.077 | [2] 0.064 | [3] 0.14 | [5] 0.025 | [6] 0.037 | IRAK-1-4 Inhibitor I 0.032 | ralimetinib -0.012 | [10] -0.038 | [11] -0.039 | [13] -0.003 | [15] 0.027

NAPG (UniProt Q99747)
inactive: erlotinib -0.009 | [1] -0.018 | [2] 0.017 | [3] -0.022 | [4] -0.001 | [5] 0.003 | [6] 0.022 | [7] -0.004 | [8] 0.003 | IRAK-1-4 Inhibitor I 0.011 | ibrutinib 0.016 | [9] -0.008 | ralimetinib -0.017 | [10] -0.037 | [11] 0.028 | [12] 0.023 | [13] -0.029 | [14] -0.005 | [15] -0.035 | [16] -0.022

NCBP1 (UniProt Q09161)
inactive: erlotinib -0.017 | [1] 0.011 | [2] -0.017 | [3] 0.009 | [4] 0.001 | [5] -0.008 | [6] -0.013 | [7] -0.014 | [8] 0.002 | IRAK-1-4 Inhibitor I 0.009 | ibrutinib -0.034 | [9] -0.001 | ralimetinib 0.039 | [10] -0.001 | [11] -0.03 | [12] -0.009 | [13] 0.005 | [14] 0.003 | [15] 0.012 | [16] 0.008

MYO9A isoform 4 (UniProt B2RTY4)
inactive: erlotinib 0.074 | [1] 0.008 | [2] -0.125 | [3] -0.045 | [4] 0.153 | [5] -0.007 | [6] -0.05 | IRAK-1-4 Inhibitor I -0.059 | ibrutinib -0.057 | [9] 0.016 | ralimetinib 0.022 | [10] 0.068 | [11] 0.03 | [12] -0.031 | [13] -0.142 | [14] -0.037 | [15] 0.043 | [16] -0.005

MZT2B (UniProt Q6NZ67)
inactive: erlotinib -0.022 | [1] -0.409 | [2] 0.029 | [3] -0.008 | [4] -0.035 | [5] 0.044 | [6] 0.017 | [7] -0.007 | [8] 0.104 | IRAK-1-4 Inhibitor I -0.04 | ibrutinib -0.105 | [9] 0.101 | ralimetinib -0.009 | [10] -0.026 | [11] -0.011 | [12] 0.023 | [14] -0.003 | [15] 0.032 | [16] -0.089

MYH14 isoform 2 (UniProt Q7Z406)
inactive: erlotinib -0.005 | [1] 0.018 | [2] -0.003 | [3] -0.002 | [4] -0.03 | [5] -0.015 | [6] -0.043 | [7] -0.004 | [8] 0.008 | IRAK-1-4 Inhibitor I -0.009 | ibrutinib 0.017 | [9] -0.03 | ralimetinib 0.016 | [10] -0.029 | [11] -0.011 | [12] -0.008 | [13] -0.047 | [14] 0.021 | [15] 0.028 | [16] -0.021

MYNN (UniProt Q9NPC7)
inactive: erlotinib 0.153 | [1] -0.478 | [2] -0.484 | [3] 0.137 | [5] -0.048 | [6] -0.271 | IRAK-1-4 Inhibitor I 0.049 | ralimetinib -0.291 | [10] -0.052 | [11] 0.065 | [13] 0.001 | [15] 0.152

NCOA1 isoform 2 (UniProt Q15788)
inactive: erlotinib 0.277 | [1] 0.006 | [2] -0.016 | [3] 0.144 | [6] -0.075 | [9] 0.143 | [11] 0.091 | [13] 0.038 | [16] -0.125

NCCRP1 (UniProt Q6ZVX7)
inactive: [4] 0.48 | [5] 0.133 | IRAK-1-4 Inhibitor I -0.13 | ibrutinib -0.217 | [9] -0.137 | ralimetinib -0.134 | [10] 0.684 | [13] 0.328 | [14] 0.149 | [15] 0.013 | [16] 0.052

N4BP3 (UniProt O15049)
inactive: erlotinib -0.038 | [2] 0.056 | [4] -0.107 | ibrutinib 0.039 | [9] -0.055 | [11] 0.056 | [12] 0.055 | [16] 0.038

NCOA7 isoform 2 (UniProt Q8NI08)
inactive: [9] -0.083 | [13] 0.019 | [16] -0.061

MYC isoform 2 (UniProt P01106)
inactive: [5] 0.084 | IRAK-1-4 Inhibitor I 0.033 | ralimetinib 0.063 | [10] -0.081 | [12] 0.01 | [15] -0.011

NAV2 (UniProt Q8IVL1)
inactive: [4] -0.001 | [5] 0.017 | [7] -0.129 | [8] -0.199 | IRAK-1-4 Inhibitor I 0.086 | ibrutinib 0.232 | [9] 0.041 | ralimetinib -0.252 | [10] 0.89 | [12] -0.255 | [15] -0.005 | [16] 0.158

NAA80 isoform 2 (UniProt Q93015)
inactive: erlotinib 0.15 | [2] 0.155 | [5] 0.035 | IRAK-1-4 Inhibitor I 0.199 | ralimetinib 0.018 | [10] -0.073 | [11] -0.103 | [12] 0.087 | [15] 0.059

MYO1G (UniProt B0I1T2)
inactive: erlotinib 0.052 | [2] 0.012 | [4] -0.114 | [7] -0.109 | [8] -0.102 | ibrutinib 0.13 | [9] 0.149 | [11] -0.069 | [12] -0.105 | [13] 0.005 | [14] -0.138 | [16] 0.003

MYT1L (UniProt Q9UL68)
inactive: [5] 0.017 | IRAK-1-4 Inhibitor I 0.092 | [9] 0.041 | ralimetinib 0.031 | [10] 0.03 | [15] 0.134 | [16] -0.061
